PubChem BioAssay AID1259405 | NCATS | 2018
Assay: 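Mouse-designed siRNAs used to find CHO productivity engineering targets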 (primary screen). System: Chinese hamster CHO-K1 ovary cells with stable secreted eGFP expression. Reagent: single siRNA against mouse genes, 0.8 pmol siRNA per well (2 µl of 400 nM stock). Duration: 3 days. Read-out: 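Percent of the per-plate non-targeting control median for intracellular GFP per well by laser scanning cytometry and for cell viability by ATP luminescence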. Scale: GFP, % of control: higher = more GFP per well, higher productivity; viability (ATP), % of control: higher = more viable cells (more ATP). Hit rule: 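Called active when intracellular GFP, relative to negative control, is at or above 120%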.
Here is an unselected part of about 50,000 deposited reagents. About 4,000 of them (8%) count as active. 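Mouse siRNA library applied to hamster cells; one well for each siRNA.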 The numbers tell different reagents against one gene apart.

Serpina3k (serine (or cysteine) peptidase inhibitor, clade A, member 3K) #1
- GFP, % of control: 66.8
- viability (ATP), % of control: 87
- Call: inactive

Serpina3k (serine (or cysteine) peptidase inhibitor, clade A, member 3K) #2
- GFP, % of control: 90
- viability (ATP), % of control: 51.1
- Call: inactive

Serpina3k (serine (or cysteine) peptidase inhibitor, clade A, member 3K) #3
- GFP, % of control: 89.8
- viability (ATP), % of control: 102
- Call: inactive

Anp32e (acidic nuclear phosphoprotein 32 family member E) #1
- GFP, % of control: 128
- viability (ATP), % of control: 106
- Call: active

Anp32e (acidic nuclear phosphoprotein 32 family member E) #2
- GFP, % of control: 54.2
- viability (ATP), % of control: 76.4
- Call: inactive

Anp32e (acidic nuclear phosphoprotein 32 family member E) #3
- GFP, % of control: 99
- viability (ATP), % of control: 96.2
- Call: inactive

Plaat5 (phospholipase A and acyltransferase 5) #1
- GFP, % of control: 49.2
- viability (ATP), % of control: 56.3
- Call: inactive

Plaat5 (phospholipase A and acyltransferase 5) #2
- GFP, % of control: 56
- viability (ATP), % of control: 50.5
- Call: inactive

Plaat5 (phospholipase A and acyltransferase 5) #3
- GFP, % of control: 76.7
- viability (ATP), % of control: 85.4
- Call: inactive

Rlig1 (RNA 5'-phosphate and 3'-OH ligase 1) #1
- GFP, % of control: 98.1
- viability (ATP), % of control: 95.5
- Call: inactive

Rlig1 (RNA 5'-phosphate and 3'-OH ligase 1) #2
- GFP, % of control: 85.1
- viability (ATP), % of control: 73.8
- Call: inactive

Rlig1 (RNA 5'-phosphate and 3'-OH ligase 1) #3
- GFP, % of control: 61.9
- viability (ATP), % of control: 84
- Call: inactive

9530002B09Rik (RIKEN cDNA 9530002B09 gene) #1
- GFP, % of control: 42.7
- viability (ATP), % of control: 50.4
- Call: inactive

9530002B09Rik (RIKEN cDNA 9530002B09 gene) #2
- GFP, % of control: 73.9
- viability (ATP), % of control: 86.4
- Call: inactive

9530002B09Rik (RIKEN cDNA 9530002B09 gene) #3
- GFP, % of control: 43.4
- viability (ATP), % of control: 50.6
- Call: inactive

Cap1 (cyclase associated actin cytoskeleton regulatory protein 1) #1
- GFP, % of control: 83.1
- viability (ATP), % of control: 83
- Call: inactive

Cap1 (cyclase associated actin cytoskeleton regulatory protein 1) #2
- GFP, % of control: 91
- viability (ATP), % of control: 54
- Call: inactive

Cap1 (cyclase associated actin cytoskeleton regulatory protein 1) #3
- GFP, % of control: 127
- viability (ATP), % of control: 143
- Call: active

Laid out differently: results already given
Target gene	reagent	GFP, % of control	viability (ATP), % of control	Call
Plaat5 (phospholipase A and acyltransferase 5)	1	49.2	56.3	inactive
Plaat5 (phospholipase A and acyltransferase 5)	2	56	50.5	inactive
